Substitutions are numbered along the chain they refer to. Names and notes keep the numbering of the source. No constants are given. Whether binding was seen depends on the method and setting. Some entries that bind do so weakly or less than the wild type. Where a sequence is shown, tags or fusion partners need not be part of it.
T1: soluble murine CD25 (His-tagged recombinant mouse IL-2Rα/CD25, R&D Systems) (mouse) (UniProt P01590)
T1 sequence (looked up): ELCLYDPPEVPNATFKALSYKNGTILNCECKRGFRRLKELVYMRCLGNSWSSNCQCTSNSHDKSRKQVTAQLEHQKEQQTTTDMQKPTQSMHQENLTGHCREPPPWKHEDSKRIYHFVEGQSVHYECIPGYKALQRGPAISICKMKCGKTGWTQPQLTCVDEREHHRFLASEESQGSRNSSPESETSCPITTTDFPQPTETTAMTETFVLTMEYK

B1: mouse IL-2 H82E (yeast-displayed) (ligand)
chain: APTSSSTSSSTAEAQQQQQQQQQQQQHLEQLLMDLQELLSRMENYRNLKLPRMLTFKFYLPKQATELKDLQCLEDELGPLREVLDLTQSKSFQLEDAENFISNIRVTVVKLKGSDNTFECQFDDESATVVDFLRRWIAFCQSIISTSPQ
B2: mouse IL-2 H82S (yeast-displayed) (ligand)
chain: B1 chain with E82S
B3: mouse IL-2 H82A (yeast-displayed) (ligand)
chain: B1 chain with E82A
B4: mouse IL-2 H82G (yeast-displayed) (ligand)
chain: B1 chain with E82G
B5: mouse IL-2 Q121R (yeast-displayed) (ligand)
chain: B1 chain with E82H, Q121R
B6: mouse IL-2 Q121S (yeast-displayed) (ligand)
chain: B1 chain with E82H, Q121S
B7: mouse IL-2 Q121A (yeast-displayed) (ligand)
chain: B1 chain with E82H, Q121A
B8: mouse IL-2 Q121G (yeast-displayed) (ligand)
chain: B1 chain with E82H, Q121G
B9: S126P IL-2 (mouse, yeast-displayed) (ligand)
chain: B1 chain with E82H, S126P
B10: S126T IL-2 (mouse, yeast-displayed) (ligand)
chain: B1 chain with E82H, S126T

biological target: T1, soluble murine CD25 (His-tagged recombinant mouse IL-2Rα/CD25, R&D Systems) (mouse); test: yeast surface display, 5 or 50 nM soluble CD25

binding, binds:
B1, B2, B3, B4, B5, B6, B7, B8

biological target: T1, soluble murine CD25 (His-tagged recombinant mouse IL-2Rα/CD25, R&D Systems) (mouse); test: yeast surface display, soluble CD25

binding, binds:
B9, B10

— patent US20150132254A1 (MIT, published 2015)
